# Source: publication PMC7819943, “Rice protein-binding microarrays: a tool to detect cis-acting elements near promoter regions in rice”
# Sequences of proteins named here, by UniProt entry; tags and fusion partners are left off.
# UniProt Q0JBA9, entry or part of it: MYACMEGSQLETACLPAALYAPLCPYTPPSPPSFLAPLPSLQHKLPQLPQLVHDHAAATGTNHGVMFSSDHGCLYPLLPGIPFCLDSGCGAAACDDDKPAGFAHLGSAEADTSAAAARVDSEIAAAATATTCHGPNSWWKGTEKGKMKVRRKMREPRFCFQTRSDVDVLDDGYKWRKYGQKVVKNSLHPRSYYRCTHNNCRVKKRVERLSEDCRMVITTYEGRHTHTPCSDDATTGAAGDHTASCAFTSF
# Some of the results follow.
# Target: OsWRKY34 (Oryza sativa, UniProt Q0JBA9 1-250)
# Assay: protein-binding microarray (RPBM); PBS, 2% BSA, 51.3 ng/ul salmon testes DNA, 50 uM zinc acetate, 200 nM TF, 25 C, 1 h; high values mean tight binding
# Settings: protein: recombinant; tags: N-terminal polyhistidine and DsRed monomer fusion (pET32a); label: CyDye5-dUTP incorporated in the synthesized complementary strand; 3' TTTTT single-stranded linker to array surface; dsDNA, one strand shown
# Summary of the method: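 The binding signal is fluorescence intensity per array feature (arbitrary units). Readings came from an Axon 4000B scanner after a washed, 2% BSA-blocked, double-stranded custom Agilent array had been incubated for 1 h at 25 °C with 200 nM protein and 50 µM zinc acetate. The protein was a Ni–NTA-purified transcription factor fused N-terminally to polyhistidine and DsRed, expressed in E. coli BL21-CodonPlus.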
row,Sequence,binding signal
1,ACTTTCAACTTTTTTTCTAAACTCTTAACTTTCTTCAAACCGGAGTCACCTAGTGCAG,9100 fluorescence intensity (a.u.)
2,GTTTCCAGGCGGAATCTGTAATTTGTTTTGTTGTTAGTCTCGGAGTCACCTAGTGCAG,10600 fluorescence intensity (a.u.)
3,TTACACCCCACTTACACATCACTTACATATGTAATTAATACGGAGTCACCTAGTGCAG,8040 fluorescence intensity (a.u.)
4,TTACTACTGTCTGCTCCTAGGGCTGTTGTTTTTCCTTGTTCGGAGTCACCTAGTGCAG,10600 fluorescence intensity (a.u.)
5,TTTTCATCGTTCATTTCCCTACAGCAAATGTTTGGCAGCCCGGAGTCACCTAGTGCAG,8060 fluorescence intensity (a.u.)
6,CATGTGTACGATTAACATCTATCTATTATATTATATAATACGGAGTCACCTAGTGCAG,8860 fluorescence intensity (a.u.)
7,AGCGCTACTCCACATCTGTTTGCTCGTGCTCTCCGGATCTCGGAGTCACCTAGTGCAG,8550 fluorescence intensity (a.u.)
8,TTTTCCTTGTTCTTATCACACGTCTTTTGACATATGGCGCCGGAGTCACCTAGTGCAG,9800 fluorescence intensity (a.u.)
9,CATTTGTGTAGTTTATAAGAGTTGTTCGCACATGTTTAGTCGGAGTCACCTAGTGCAG,10800 fluorescence intensity (a.u.)
10,ATTTGCTCAAACGATGACCTGATATTCTAGTTACCACTTACGGAGTCACCTAGTGCAG,8690 fluorescence intensity (a.u.)
11,GCACTGCTTCCCTATCCAACAGTCTCTCGATTACTTCCCTCGGAGTCACCTAGTGCAG,8070 fluorescence intensity (a.u.)
12,CCGCCTGCCACCTCCTCGCCGCCCGTCGCGTCGACGCCTGCGGAGTCACCTAGTGCAG,8440 fluorescence intensity (a.u.)
13,CCTCGCCGTCGCCGGTCCTCGTCTCCTCCTCTATCTATATCGGAGTCACCTAGTGCAG,8600 fluorescence intensity (a.u.)
14,TGCTGTCGATGTGCTTATCTTTCGATTTATTCCTCTCATCCGGAGTCACCTAGTGCAG,9850 fluorescence intensity (a.u.)
15,GAATCTTAGTGGTATAATCCAGCTGTTGACTTTGTTAGGGCGGAGTCACCTAGTGCAG,12800 fluorescence intensity (a.u.)
16,CCATGGTGATGCACTCGTCACGCTCTAGCGGAAGAGATCCCGGAGTCACCTAGTGCAG,8200 fluorescence intensity (a.u.)
17,ATGATACTAGCGGAGCTCACTACTTACTATTAGTCAATGTCGGAGTCACCTAGTGCAG,8330 fluorescence intensity (a.u.)
18,GCTGTTTGATCCATAATTTATCCGCGCGTCGTCACTCCGACGGAGTCACCTAGTGCAG,10200 fluorescence intensity (a.u.)
19,TCCAGTGTTAACATCGTTTCTCCTTGGCACGCTAAGCTTTCGGAGTCACCTAGTGCAG,10100 fluorescence intensity (a.u.)
20,TTTGTTGCTTTTTGGTTGACTAAAACTTTCCATGGAATGCCGGAGTCACCTAGTGCAG,8040 fluorescence intensity (a.u.)
21,CATAGTTTATATATCCGGTTTATCAAGTGACCTAGCGTTCCGGAGTCACCTAGTGCAG,8200 fluorescence intensity (a.u.)

row,Sequence,binding signal
1,CGTGACAACTCCACCTCCACTTCTCTCCTCTCTCGTCTTTCGGAGTCACCTAGTGCAG,9820 fluorescence intensity (a.u.)
2,TCGCATGTCCCTCGCTCTCCTGTACATCATGCGCATTCTTCGGAGTCACCTAGTGCAG,13500 fluorescence intensity (a.u.)
3,ATTATCAAATTTCTCGTGCATATGTCACTCGTATTTGTTGCGGAGTCACCTAGTGCAG,9590 fluorescence intensity (a.u.)
4,AACTCTCTAGCTAATTAATCTACTTCACTAACTTTGACTACGGAGTCACCTAGTGCAG,8130 fluorescence intensity (a.u.)
5,GTCACGAGTTTGATGCTCCTTTCTTGTCGTCGTGCTAGCACGGAGTCACCTAGTGCAG,9410 fluorescence intensity (a.u.)
6,TTGCCCACATTATAATATGCAGCAGCCACATTGCTGCATCCGGAGTCACCTAGTGCAG,8670 fluorescence intensity (a.u.)
7,CCCCACCAGGCCACCCGGCTTCTTCGTGTTGCTCACTGCACGGAGTCACCTAGTGCAG,9680 fluorescence intensity (a.u.)
8,CTTATTGCGCATTCTCTGTTGAGGCGGACATTGCCATTGCCGGAGTCACCTAGTGCAG,12400 fluorescence intensity (a.u.)
9,TTGCTAAAAAGTCAACGGTGTCAAATATTTCGAAACGGAGCGGAGTCACCTAGTGCAG,12300 fluorescence intensity (a.u.)
10,ACCATTATTTAACATGTCCAATTTTAATCGTCCGTCTTATCGGAGTCACCTAGTGCAG,9290 fluorescence intensity (a.u.)
11,GGTGCTCCGGATGCGCAGGTACAAGCTTTTTTTTTAGTTTCGGAGTCACCTAGTGCAG,8040 fluorescence intensity (a.u.)
12,ACAGTAGAGTGGGGTGTGCATATAATATTCATCAATTAGGCGGAGTCACCTAGTGCAG,10100 fluorescence intensity (a.u.)
13,TCCTGCCACACACTCGTCAATCGCGAAATCATGTGGCTAACGGAGTCACCTAGTGCAG,10000 fluorescence intensity (a.u.)
14,AGGTAATTCAACTTCATCCCTAGAAGCCATGGTACTTTTTCGGAGTCACCTAGTGCAG,10800 fluorescence intensity (a.u.)
15,CCACGCCCAGCGAAAACCCGTACCCGTCTCGTCTTATTTTCGGAGTCACCTAGTGCAG,12400 fluorescence intensity (a.u.)
16,TTTTTTCATATTTTATGTTTTATGTATACGTTCAAACATTCGGAGTCACCTAGTGCAG,8690 fluorescence intensity (a.u.)
17,GTGACCTCCACTTCTTGGAGACCTCTTGCTGCTGCTCATTCGGAGTCACCTAGTGCAG,8190 fluorescence intensity (a.u.)
18,AACACGCGCACACCACCATGGCGAATCCACCACCGCTAGTCGGAGTCACCTAGTGCAG,8400 fluorescence intensity (a.u.)
19,AAAATTTTTCTATTCAATTCTTTTCGTTTTTGGACCTCTCCGGAGTCACCTAGTGCAG,8660 fluorescence intensity (a.u.)
20,GCTTTTATTGTTGCAGATACTACATGAACTACTTTAATTTCGGAGTCACCTAGTGCAG,9550 fluorescence intensity (a.u.)
21,GAGGTCTTATGTTTAATCCCTAACCCGTTCAATATCTTCTCGGAGTCACCTAGTGCAG,8840 fluorescence intensity (a.u.)

# Reformatted with tabs: part of the list above.
row	Sequence	binding signal
19	TCCAGTGTTAACATCGTTTCTCCTTGGCACGCTAAGCTTTCGGAGTCACCTAGTGCAG	10100 fluorescence intensity (a.u.)
20	TTTGTTGCTTTTTGGTTGACTAAAACTTTCCATGGAATGCCGGAGTCACCTAGTGCAG	8040 fluorescence intensity (a.u.)
21	CATAGTTTATATATCCGGTTTATCAAGTGACCTAGCGTTCCGGAGTCACCTAGTGCAG	8200 fluorescence intensity (a.u.)
1	CGTGACAACTCCACCTCCACTTCTCTCCTCTCTCGTCTTTCGGAGTCACCTAGTGCAG	9820 fluorescence intensity (a.u.)

# Later entries

row,Sequence,binding signal
1,GGTGGCCCTCGTGGTGTGGTGGTGGAAGAAGAGGGCGATGCGGAGTCACCTAGTGCAG,8320 fluorescence intensity (a.u.)
2,CCCTCCATCTACTTTTAATAGTCATATTTCATCTTGACACCGGAGTCACCTAGTGCAG,8410 fluorescence intensity (a.u.)
3,CTCCTCATCCGCCTCTCCACCCACCTCAACCCTGACCCGACGGAGTCACCTAGTGCAG,10200 fluorescence intensity (a.u.)
4,GCCCACGTACGCCGGCACCCATCCGTCTGCTCCACGCGTCCGGAGTCACCTAGTGCAG,10200 fluorescence intensity (a.u.)
5,GTGGTGGTGGTGGTGGTGGTGGTGGTGGTGCACGGCCATGCGGAGTCACCTAGTGCAG,16400 fluorescence intensity (a.u.)
6,GTCGTCAACTCCGTCTCGCAATTCCCAAACCGCACCTTCCCGGAGTCACCTAGTGCAG,9230 fluorescence intensity (a.u.)
7,GTTCTGACTGTTGTGTTGTGGGTGTTTGGTTTATGAGCAGCGGAGTCACCTAGTGCAG,8430 fluorescence intensity (a.u.)
8,TCATTGCCCGTCCGATCTCTCACCTGCGATTTAATGTTCACGGAGTCACCTAGTGCAG,11500 fluorescence intensity (a.u.)
9,CTTTGCCTTCGCGGCGCCGTCTCCGTCGCCACTCACACCCCGGAGTCACCTAGTGCAG,8550 fluorescence intensity (a.u.)
10,GCCTGCTGTTCCTTTTAGTTTCTCCAAGCTCCTGCCAACACGGAGTCACCTAGTGCAG,8320 fluorescence intensity (a.u.)
11,TGAGGTTTGTCTTGGTATTTTGTTGTTTTGGTCTACAGTTCGGAGTCACCTAGTGCAG,10700 fluorescence intensity (a.u.)
12,GTCGCATGTTATACGCTTTAATCATCTCCGCGTACATAACCGGAGTCACCTAGTGCAG,9620 fluorescence intensity (a.u.)
13,CTCATCCTCCTCAATCACCGTTCGACTCGCTGCTTCCCCTCGGAGTCACCTAGTGCAG,8840 fluorescence intensity (a.u.)
14,GTAGTCTCACCTACACCAGCCCGGGAACTATTCTCATTGTCGGAGTCACCTAGTGCAG,8080 fluorescence intensity (a.u.)
15,TAGGTTTTTTTTTACTTTTTAACTTGGCTGATTTTATTGACGGAGTCACCTAGTGCAG,8760 fluorescence intensity (a.u.)
16,GGCGTGTTGGTGTGCGTGGATTGGGTGGGTGAGGAGGATGCGGAGTCACCTAGTGCAG,13000 fluorescence intensity (a.u.)
17,GGCCCTACTTCCCTTCACGCCTCCACTGACCTCGCCGGCCCGGAGTCACCTAGTGCAG,9270 fluorescence intensity (a.u.)
18,AGCTTACACCCTCATCTTTTCGCTTATACTTATCAGCCAACGGAGTCACCTAGTGCAG,13100 fluorescence intensity (a.u.)
19,ACACATACATTCCTATTAGAATCCTGCATTTTTTCTATTCCGGAGTCACCTAGTGCAG,8440 fluorescence intensity (a.u.)
20,AAGAGGTTGGTTTGGAAATGCATATTGAGCCCTGTACTGTCGGAGTCACCTAGTGCAG,10000 fluorescence intensity (a.u.)
21,TCCATTGCATGCAGCTCATCATGTCACGTCCTTACATGCTCGGAGTCACCTAGTGCAG,10800 fluorescence intensity (a.u.)

row,Sequence,binding signal
1,GTTATTTTTTCGTTTATATTTAATATTCATACATGTATCCCGGAGTCACCTAGTGCAG,9980 fluorescence intensity (a.u.)
2,GCCGGTACGGTGAAGATTTGCTCCACCCACTTTTTCTTCACGGAGTCACCTAGTGCAG,8490 fluorescence intensity (a.u.)
3,AGAGGGAGGAGGGGACTGGGGCGGCGGCTAGGGTTGGGGACGGAGTCACCTAGTGCAG,15600 fluorescence intensity (a.u.)
4,CGAGATCTTTGGTTTGGTTGGTTTCTTTAAGACCCGTGCGCGGAGTCACCTAGTGCAG,8780 fluorescence intensity (a.u.)
5,TCAAAACCCTCGCCTCCGCTCTCTCGCGCACACTCGTGCTCGGAGTCACCTAGTGCAG,8940 fluorescence intensity (a.u.)
6,CTGTAGATAGGGGCAGTTATAAATACGCGGGGACAAAAAACGGAGTCACCTAGTGCAG,13800 fluorescence intensity (a.u.)
7,GGGCTTGTTTACTTTGTTATTATTTTCGGTTCTACCATTTCGGAGTCACCTAGTGCAG,11600 fluorescence intensity (a.u.)
8,GGTTGATTATTCCGTCGGCGTCAGCCATCAGGTGCATCACCGGAGTCACCTAGTGCAG,8040 fluorescence intensity (a.u.)
9,TTTGCGATCAATAATTCGTTGGTTCGTTCGTTCGCCGCTACGGAGTCACCTAGTGCAG,8040 fluorescence intensity (a.u.)
10,GGGATATGGAAACCACTAATACTAGTCATTTCGTCATGCTCGGAGTCACCTAGTGCAG,8100 fluorescence intensity (a.u.)
11,AATAAAAACATAGGGTCTTTTTTGCAAAATTTGCTGATGTCGGAGTCACCTAGTGCAG,8590 fluorescence intensity (a.u.)
12,GAATCACCCACACACGACTTGCGTTTTTGTCTCTCTGCTCCGGAGTCACCTAGTGCAG,9820 fluorescence intensity (a.u.)
13,AGAACACCCATTTCACTATTTCAGGCATCCATTTCGACACCGGAGTCACCTAGTGCAG,11300 fluorescence intensity (a.u.)
14,GCACACTGTTTAAGCATCATTATTTGCTTGCATCTTGGGGCGGAGTCACCTAGTGCAG,13200 fluorescence intensity (a.u.)
15,ATCCTATCTACACAAATCTTCTCATTTACACACCAATTAACGGAGTCACCTAGTGCAG,8330 fluorescence intensity (a.u.)
16,GATTAATCACTCCTACTTTACGTTGTAAAAGTTGAAATTTCGGAGTCACCTAGTGCAG,9100 fluorescence intensity (a.u.)
17,AAACTTTGATCACACTTTGGATGCATGTTCCTGCACAACACGGAGTCACCTAGTGCAG,11100 fluorescence intensity (a.u.)
18,CCTATATATTTTGGCGCTTCTGCGCGCGCCTCCTTATCTCCGGAGTCACCTAGTGCAG,8330 fluorescence intensity (a.u.)
19,GTTCCGAACGGATATGACTCATTATTCATTATTATCAGGACGGAGTCACCTAGTGCAG,8250 fluorescence intensity (a.u.)
20,TCTCTCCATTGCTAGCTCCTCATCACTCCATACAAACAACCGGAGTCACCTAGTGCAG,14000 fluorescence intensity (a.u.)
21,TGTCCAACAACTGGCACACGCCTCGTCTTCTTCCGTGACGCGGAGTCACCTAGTGCAG,9820 fluorescence intensity (a.u.)
